Laboratory results published in US12630620 (dated 2026).
These are yes or no findings as the source states them, for the method shown. Some results given as binding are weak or reduced against the parent protein; the word gives no strength.

Biological target: T1, commercial GDF15 recombinant protein (R&D, 9279-GD) (UniProt Q99988 197-308)
T1 chain: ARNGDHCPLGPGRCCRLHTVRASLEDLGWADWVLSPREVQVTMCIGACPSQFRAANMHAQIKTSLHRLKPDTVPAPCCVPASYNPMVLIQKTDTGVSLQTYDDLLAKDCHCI
Assay: SPR; GDF15 recombinant protein immobilised

B1: anti-GDF15 neutralizing monoclonal antibody G1 (antibody, V domains shown)
VH: DVQLQESGPGLVKPSQSLSLTCTVTGYSITSAYAWNWIRQFPGNKLEWMGYISYSGSTSYNPSLKSRISITRDTSKNQFFLQFNSVTTEDTATYYCARGGDAEDYWGQGTTLTVSS
VL: DIQMTQSPASLSVSVGETVTITCRASENIYSNLAWFQQKQGKSPQLLVYVATNLVDGVPSRFSGSGSGTQYSLKINSLQSEDFGTYYCQHFWGTPWTFGGGTKLEIK
  binding: binds

B2: anti-GDF15 neutralizing monoclonal antibody G2 (antibody, V domains shown)
VH: QVQLQQSGAELARPGASVKLSCKASGYTFTDYYINWVKQRTGQGLEWIGEIYPGSGNTYYNEKFKGKATLTADKSSSTAYMQLSSLTSEDSAVYFCARVRALLRPLAMDYWGQGTSVTVSS
VL: QIVLSQSPAILSASPGEKVTMTCRASSSVSYMHWYQQKPGSSPKPWIYATSNLASGVPARFSGSGSGTSYSLTISRVEAEDAATYYCQQWSSNPPFTFGSGTKLEIK
  binding: binds
